Results published in the supplement of paper PMC4604168 (melanoma cell lines).
The list shows a part of the results. Many values rest on one well or one pass, so single values are uncertain.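 Cells were imaged in 1,536-well plates, and nuclei stained with an antibody against cleaved PARP were counted against all DNA-stained nuclei to give the apoptosis fraction. Screening doses were chosen to leave most cells alive, and resting and induced cleaved-PARP levels differ strongly between cell lines.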

Test system: WM1745
Assay: cleaved PARP positive nuclei fraction relative to DMSO control; melanoma cells; higher = more apoptosis
Details: library dose: low library concentration; 72 h

In order of falling “cleaved PARP positive nuclei fraction” value:
1. Nc1ccn([C@@H]2O[C@H](CO)[C@@H](O)C2(F)F)c(=O)n1 [gemcitabine] + OCCn1cc(-c2cnc3nnn(Cc4ccc5ncccc5c4)c3n2)cn1 [PF04217903] (first compound 0.0004 µM, partner dose 1 µM)  173%
2. C=C(c1ccc(C(=O)O)cc1)c1cc2c(cc1C)C(C)(C)CCC2(C)C [Bexarotene] + CC(C)(C)c1cnc(CSc2cnc(NC(=O)C3CCNCC3)s2)o1 [SNS-032] (first compound 2 µM, partner dose 0.01 µM)  162%
3. Nc1ccn([C@@H]2O[C@H](CO)[C@@H](O)C2(F)F)c(=O)n1 [gemcitabine] + COC(=O)c1sccc1S(=O)(=O)Nc1ccc(Nc2ccccc2)cc1OC [GSK0660] (first compound 0.0004 µM, partner dose 1 µM)  123%
4. Cc1cc(Nc2cc(N3CCN(C)CC3)nc(/C=C/c3ccccc3)n2)n[nH]1 + COc1cc(N2CCC(N3CCN(C)CC3)CC2)ccc1Nc1ncc(Cl)c(Nc2ccccc2S(=O)(=O)C(C)C)n1 [NVP-TAE684] (first compound 0.04 µM, partner dose 0.08 µM)  111%
5. O=C(O)c1ccc2c(c1)nc(Nc1cccc(Cl)c1)c1ccncc12 + Oc1nc(-c2ccc(C(F)(F)F)cc2)nc2c1CSCC2 [XAV939] (first compound 0.4 µM, partner dose 2 µM)  105%
6. CNC(=O)c1cc(Oc2ccc(NC(=O)Nc3ccc(Cl)c(C(F)(F)F)c3)cc2)ccn1 [sorafenib] + CC(C)(C)c1cnc(CSc2cnc(NC(=O)C3CCNCC3)s2)o1 [SNS-032] (first compound 0.4 µM, partner dose 0.01 µM)  100%
